The values that follow come from the supplement of paper PMC12009310.

Molecules are shown by their SMILES. Counter-ions that a name gives are not always drawn. ± gives the standard deviation of the averaged measurements. The list shows a part of the results. Plates or batches differ in their baseline, so values are only roughly comparable.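 The cells are a mouse kidney inner medullary collecting duct line, silenced either for the ciliary gene Rpgrip1l or with a non-targeting control siRNA.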

For one experiment, the system named is mIMCD3. Kind of experiment: robust z score of cell number vs plate controls; higher = more cells (less cytotoxic). To be noted: 10 µM; 48 h; siRNA: siRpgrip1l.
With `c1ccc2c(c1)[I+]c1ccccc1-2` [Diphenyleneiodonium chloride], the “robust z score of cell number” value was -110 ± 78.

Regarding `C=CCN1C[C@H](C)N([C@H](c2ccc(C(=O)N(CC)CC)cc2)c2cccc(OC)c2)C[C@H]1C`, the “robust z score of cell number” value was -6.95 ± 3.8.

On to `CS(=O)(=O)Nc1ccc(Cc2noc(-c3ccc4[nH]cc(CCN)c4c3)n2)cc1`, for which the “robust z score of cell number” value is -1.72 ± 1. For the compound `Cn1cc(C(=O)C(=O)N[C@H]2CN3CCC2CC3)c2ccccc21`, the “robust z score of cell number” value was -13.8 ± 2.7.

Staying with this experiment, now noted: 10 µM; 48 h; siRNA: siScr.
On to `O=C(O)C1=CCCN(CCOC(c2ccc(C(F)(F)F)cc2)c2ccc(C(F)(F)F)cc2)C1` [CI 966 hydrochloride], for which the “robust z score of cell number” value is -5.48 ± 2.2.

As to `CN(C)CCN(C)CCc1ccc(Cl)c(Cl)c1` [BD 1047 dihydrobromide], the “robust z score of cell number” value is -29.4 ± 15.

For the compound `O=C1NC(=O)c2c1c1c3ccccc3[nH]c1c1[nH]c3ccccc3c21` [Arcyriaflavin A], the “robust z score of cell number” value is -13.7 ± 1.2. Same read-out and setting: the same measure for `CNCCc1cnc[nH]1` [N α-Methylhistamine dihydrochloride]: 0.33 ± 0.95; for `COc1cc2c(cc1O)C(CCc1ccc(Cl)cc1)N(C)CC2` (centres undefined): -33.5 ± 27; for `CN1[C@@H]2CC[C@H]1CC(OC(=O)N1Cc3ccccc3NC1=O)C2` (some centres undefined) [DAU 5884 hydrochloride]: -7.27 ± 11. On to `N#Cc1ccc(N2CCN(C(=O)COc3ccc4[nH]cc(CCN)c4c3)CC2)cc1` [Donitriptan hydrochloride], for which the “robust z score of cell number” value is -3.3 ± 6.8. As to `O=C1Nc2cc(Cl)c(Cl)cc2N2CCNCC12` (centres undefined), the “robust z score of cell number” value was -3.42 ± 3.8. As for `NC(=S)N/N=C/c1coc2ccccc2c1=O.[Cl][Cu][Cl]`, the “robust z score of cell number” value is -5.048 ± 0.024. `COc1ccc(CCN2CCC(Nc3nc4ccccc4n3Cc3ccc(F)cc3)CC2)cc1` [Astemizole]: the “robust z score of cell number” value is -14.6 ± 13. For the compound `CCN1C[C@]2(COC(=O)c3ccccc3N3C(=O)C[C@H](C)C3=O)CC[C@H](OC)[C@@]34[C@@H]5C[C@H]6[C@H](OC)[C@@H]5[C@](O)(C[C@@H]6OC)[C@](O)([C@@H](OC)[C@H]23)[C@@H]14` [Methyllycaconitine citrate], the “robust z score of cell number” value amounted to 2.65 ± 2.6. In the case of `CC(C)C[C@@H](N)C1(c2ccc(Cl)cc2)CCC1`, the “robust z score of cell number” value is -2.77 ± 5.5. Same read-out and setting: the same measure for `Oc1cc2c(cc1O)[C@H]1c3ccccc3CN[C@@H]1CC2` (racemic) [Dihydrexidine hydrochloride]: -13.2 ± 7.6; for `Oc1ccc2c3c1O[C@H]1c4oc5ccccc5c4C[C@@]4(O)[C@@H](C2)N(CC2CC2)CC[C@]314` [Naltriben mesylate]: -0.848 ± 1.7; for `Oc1ccc2c3c1O[C@H]1c4[nH]c5ccccc5c4C[C@@]4(O)[C@@H](C2)N(CC2CC2)CC[C@]314` [Naltrindole hydrochloride]: -1.09 ± 3. On to `c1ccc(C2CC2)c(OCC2=NCCN2)c1` [Cirazoline hydrochloride], for which the “robust z score of cell number” value is -0.617 ± 1.4.

On to `Cc1cc(SCc2sc(-c3ccc(C(F)(F)F)c(F)c3)nc2C)ccc1OCC(=O)O`, for which the “robust z score of cell number” value is -54.6 ± 29.

For `O=C1Nc2ccccc2C2(CCN(CCc3ccc(C(F)(F)F)cc3)CC2)O1`, the “robust z score of cell number” value was -52.3 ± 31. Regarding `C[C@H](N)Cc1cnc[nH]1` [(S)-(+)-a-Methylhistamine dihydrobromide], the “robust z score of cell number” value came out at 17.2 ± 20. Still for that read-out and setting: the same measure for `CC(=O)NCCc1c[nH]c2ccccc12` [N-Acetyltryptamine]: -2.77 ± 15. For the compound `CC(C)(C)NCC(O)COc1cccc2[nH]c(C#N)cc12` (centres undefined) [Cyanopindolol hemifumarate], the “robust z score of cell number” value is -2.18 ± 4.1. Turning to `CC(C)n1cnc2c(C(=O)N[C@H]3CN4CCC3CC4)cc(Cl)cc21`, the “robust z score of cell number” value was -16.8 ± 8.1. Still for that read-out and setting: the same measure for `C[C@@]12N[C@@H](Cc3ccccc31)c1ccccc12` [(-)-MK 801 maleate]: 0.567 ± 1.1.

Consider `CN1Cc2ccccc2[C@@H]2c3cccc4[nH]cc(c34)C[C@H]21`, for which the “robust z score of cell number” value is -36.8 ± 8.6. As to `Oc1ccc2c3c1O[C@H]1c4[nH]c5c(c4C[C@@]4(O)[C@@H](C2)N(CC2CC2)CC[C@]314)C[C@@]1(O)[C@H]2Cc3ccc(O)c4c3[C@@]1(CCN2CC1CC1)[C@H]5O4` [nor-Binaltorphimine dihydrochloride], the “robust z score of cell number” value is -2.92 ± 5.5.

Take `CC[C@@]1(O)C(=O)OCc2c1cc1n(c2=O)Cc2cc3ccccc3nc2-1` [Camptothecin]: the “robust z score of cell number” value is -51.3 ± 1.6.

On to `CN1c2ccccc2C(NCCCCCCC(=O)O)c2ccc(Cl)cc2S1(=O)=O` (centres undefined) [Tianeptine], for which the “robust z score of cell number” value was 1.13 ± 3.1. Regarding `N=C(N)NN` [Aminoguanidine hydrochloride], the “robust z score of cell number” value is -0.393 ± 2.2.

`Nc1ccncc1` [4-Aminopyridine]: the “robust z score of cell number” value is -0.862 ± 4.8. The same measure, in the same setting: the same measure for `CC(C(=O)OC1CC2CCC(C1)N2C)c1ccc(Br)cc1` (centres undefined) [PG-9 maleate]: -25.4 ± 4.8. As to `COc1ccc2[nH]cc(C3=CCNCC3)c2c1`, the “robust z score of cell number” value is -6.44 ± 5.5. For `O=C1NCN(c2ccccc2)C12CCN(CC1COc3ccccc3O1)CC2` (centres undefined) [Spiroxatrine], the “robust z score of cell number” value is -3.37 ± 0.32. Turning to `CN(C(=O)Cc1ccc(Cl)c(Cl)c1)[C@H](CN1CCCC1)c1ccccc1` [ICI-199,441 hydrochloride], the “robust z score of cell number” value is -27.8 ± 6.5. Take `O=c1[nH]oc2c1CCNC2` [THIP hydrochloride]: the “robust z score of cell number” value amounted to 2.72 ± 3.8. Still for that read-out and setting: the same measure for `CN(C)c1ccc(/C=C2\CCCN=C2c2cccnc2)cc1` [DMAB-anabaseine dihydrochloride]: -4.56 ± 9; for `CC(=O)C1=C(O)[C@@H]2[C@H]3c4c[nH]c5cccc(c45)C[C@H]3C(C)(C)N2C1=O` [Cyclopiazonic Acid]: -25.4 ± 3.6; for `c1ccc2c(c1)[I+]c1ccccc1-2` [Diphenyleneiodonium chloride]: -141 ± 120. With `C=CCN1C[C@H](C)N([C@H](c2ccc(C(=O)N(CC)CC)cc2)c2cccc(OC)c2)C[C@H]1C`, the “robust z score of cell number” value was -4.61 ± 1.6. Consider `CS(=O)(=O)Nc1ccc(Cc2noc(-c3ccc4[nH]cc(CCN)c4c3)n2)cc1`, for which the “robust z score of cell number” value is -2.46 ± 1.

Consider `Cn1cc(C(=O)C(=O)N[C@H]2CN3CCC2CC3)c2ccccc21`, for which the “robust z score of cell number” value is -16.3 ± 9.1.
